Source: PubChem BioAssay AID1347075 (National Center for Advancing Translational Sciences (NCATS), 2019)
Where “and” joins values, the source holds several entries; their conditions need not be identical. Identical values can stand only once. The campaign covered roughly 400,000 compounds. About 5,500 (1.4%) were called active. This list was built around the results that the source calls inconclusive (neither active nor inactive); the mix of calls is not that of the screen. The call rests on the fitted dose curve; in most records, active means well fitted cell-killing curve with a large enough effect; inconclusive means small, poorly fitted or top-dose-only effect, or effect the other way; inactive means flat fitted curve, though single readings scatter. Where the call is inconclusive, the potency comes from a doubtful curve fit.

assay: qHTS assay for MDR1-selective chemotherapeutics: Primary screen using the parental adenocarcinoma cell KB-3-1; conditions: KB-3-1 viability, CellTiter-Glo ATP luminescence, 72 h; activity change, negative = cytotoxic: at 46.1 µM (top of the series); further: nearly all actives have a fitted effect of over 60% in size
In short: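 72 h, 37 °C compound treatment of KB-3-1 parental cells; CellTiter-Glo added, 10 min, luminescence read. Data corrected against DMSO-only plates and normalized before curve fitting.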
On the % scale 0 is the no-effect control and ±100 the full control effect; potency means the concentration at half of the fitted maximal effect.

SMILES | Potency | activity change, negative = cytotoxic
CN(C)CCCN(C(=O)c1ccc2c(c1)CCCC2)c1nc2ccc(Cl)cc2s1 | inconclusive: 23.1 µM [cytotoxic, single point] | –
COc1ccc(-c2nc3c(c(SCc4ccc(Br)cc4)n2)Cc2c(CO)cnc(C)c2O3)cc1 | inactive | –
CCc1ccc(-c2cc(C(=O)N/N=C/c3c[nH]c4ccccc34)[nH]n2)cc1 | inconclusive: 4.61 µM [cytotoxic, full curve, poor fit] | –
Cc1cc(C)cc(N(CC(=O)NCCc2ccc(Cl)cc2)S(=O)(=O)c2c(C)noc2C)c1 | inactive | –
O=c1cc(N=Nc2ccc(Cl)cc2)[nH]c(=O)[nH]1 | inconclusive: 18.4 µM [cytotoxic, single point] | –
CNC(=O)NC(=O)C(c1ccccc1)N(C)CC1COc2ccccc2O1 (stereo not given) | inconclusive: 2.06 µM [rising, partial curve, poor fit] | –
Fc1cccc(CCN2CCNC[C@H]2Cc2cccc3ccccc23)c1 | inactive | –
C=CCN(CC=C)Cc1cc(=O)oc2ccc3ccccc3c12 | inconclusive: 29.1 µM [cytotoxic, single point] | –
O=C(Cc1ccc(Cl)cc1)Nc1ccc(SC(F)F)cc1 | inconclusive: 16.4 µM [cytotoxic, partial curve, poor fit] | –
COc1ccc(C(=O)CSc2cc(C)nc(SCC(=O)c3ccc(C)cc3)n2)cc1 | – | inconclusive: -4.67%
Cc1ccc2c(=O)cc(C(=O)N(Cc3ccc(C(C)(C)C)cc3)C3CCS(=O)(=O)C3)oc2c1 (stereo not given) | inconclusive: 23.1 µM [cytotoxic, single point] | –
COc1ccc(-c2noc(=O)n2Cc2cc(C)ccc2C)cc1 | inconclusive: 18.4 µM [cytotoxic, single point] | –
Cc1ccc(CNC(=O)c2cc(=O)c3cc(C)c(C)cc3o2)cc1 | inactive | –
CN(C)CCCNc1c2c(nc3ccccc13)CCC2 | inconclusive: 20.6 µM [cytotoxic, single point] | –
CC(C)(Oc1ccc(Cl)cc1)C(=O)N1CCN(C(=O)c2ccco2)CC1 | inconclusive: 0.0184 µM [cytotoxic, full curve] | –
CC(C)CCOc1cccc(OCC(=O)N(C)C2CCS(=O)(=O)C2)c1 (stereo not given) | inactive | –
COc1ccc(CNC(=O)C2CCCN(C(=O)c3cnn(-c4ccc(F)cc4)c3-n3cccc3)C2)cc1 (stereo not given) | inconclusive: 29.1 µM [cytotoxic, single point] | –
COc1ccccc1CN(C)C(=O)c1cc(-c2cccs2)nc2ccccc12 | inconclusive: 29.1 µM [cytotoxic, single point] | –
CCOc1cccc2sc(NC(=O)c3ccc(S(=O)(=O)N4CCCCC4)cc3)nc12 | inactive | –
CCN(C(=O)COC(=O)/C=C/c1c(C)nn(Cc2ccc(C)cc2)c1C)C1CCS(=O)(=O)C1 (stereo not given) | inactive | –
CCOc1ccc(CC(=O)NCCc2sc(-c3cccc(F)c3)nc2C)cc1 | inactive | –
CCCN1C/C(=C/c2cccc([N+](=O)[O-])c2)C(=O)/C(=C/c2cccc([N+](=O)[O-])c2)C1 | inconclusive: 2.06 µM [cytotoxic, full curve, poor fit] | –
CCSc1nc2sc3c(c2c2[n+]1CC(CBr)O2)CCCC3 (stereo not given) | inconclusive: 20.6 µM [cytotoxic, partial curve, poor fit] | –
CC1(C)N=C(N)N=C(N)N1c1cccc(C#N)c1 | active: 16.4 µM | –

SMILES | Potency | activity change, negative = cytotoxic
COc1ccc(C2CC(c3ccccc3)=NN2c2ccc(N)cc2)cc1 (stereo not given) | inconclusive: 29.1 µM [cytotoxic, single point] | –
COc1cc2[nH]c(=S)nc(NCc3ccccn3)c2cc1OC | inconclusive: 16.4 µM [rising, partial curve, poor fit] | –
O=c1[nH]c2cc3ccccc3cc2nc1-c1nnnn1C1CCCC1 | active: 5.8 µM | –
Cc1nn(-c2ccccn2)c2c1C(c1ccsc1)C1=C(CCCC1=O)N2 (stereo not given) | inconclusive: 29.1 µM [rising, single point] | –
COc1ccccc1-c1cn(-c2ccccc2)c(=S)[nH]1 | inconclusive: 29.1 µM [cytotoxic, single point] | –
CC(C)NC(=O)Nc1ccc2c(c1)C(=O)N([C@H](C)CO)C[C@H](C)[C@@H](CN(C)C(=O)NC(C)C)O2 | inactive | –
CCN1CCN(CCNC(=O)c2ccc(/C=C3/Sc4ccccc4N(Cc4cccc(C)c4)C3=O)cc2)CC1 | inconclusive: 20.6 µM [cytotoxic, single point] | –
CCOc1cc(/C=C2\CN(C)C/C(=C\c3ccc(O)c(OCC)c3)C2=O)ccc1O | active: 7.31 µM | –
Cc1ccc(N2C(=O)C3C4C=CC(CNC(=S)N5CCN(c6cccc(C)c6)C(C)C5)(O4)C3C2=O)cc1 (stereo not given) | inconclusive: 32.6 µM [cytotoxic, single point] | –
COc1ccc(OC)c(/C=N/NC(=O)c2ccc(Cn3cc([N+](=O)[O-])cn3)o2)c1 | inconclusive: 13 µM [rising, partial curve] | –
Cc1[nH]c2ccccc2c1C(=O)c1cc(Cc2ccccc2)sc1N | active: 20.6 µM | –
CCCCNC(=O)Cn1c(=O)cc(C)c2c(C)nn(-c3cccc(Cl)c3C)c21 | inactive | –
O=C(CC1C(=O)NCCN1Cc1ccc(-c2ccccc2)cc1)NCCOc1cccnc1 (stereo not given) | inconclusive: 29.1 µM [cytotoxic, single point] | –
COc1ccc(OC)c(NC(=O)c2cc(-c3ccc(F)cc3OC(C)C)n[nH]2)c1 | inactive | –
O=C(COC(=O)c1cc(=O)[nH]c(=O)[nH]1)NCc1ccccc1 | inactive | –
Cc1[nH]c(=O)[nH]c(=O)c1/C=N/NC(=O)[C@@H](N)CC(C)C | – | inconclusive: -42% [cytotoxic]
O=C(CCCCn1c(=O)[nH]c2ccccc2c1=O)NCc1ccc2c(c1)OCO2 | inconclusive: 16.4 µM [rising, single point] | –
CCCCC[C@@H]1C=C(C(=O)O)[C@H](c2cccc(C)c2)N1S(=O)(=O)c1ccc(C)cc1 | inactive | –
CSc1ccccc1NC(=O)Nc1cccc(Cl)c1 | inconclusive: 29.1 µM [cytotoxic, single point] | –
CC(=O)c1ccc(C(=O)Nc2nnc(-c3ccc(Cl)cc3)o2)cc1 | inconclusive: 29.1 µM [cytotoxic, single point] | –
Cc1ccc(C)c(NC(=S)NNC(=O)c2sccc2C)c1 | inactive | –
COc1ccc(C)cc1Nc1c2c(nc3ccccc13)CCC2 | active: 4.61 µM and active: 651 nM | –
CC(=O)Nc1ccc(S(=O)(=O)NCC(=O)NC(C)c2ccc(S(N)(=O)=O)cc2)cc1 (stereo not given) | inactive | –
N#C/C(=C\c1ccc(N2CCCCC2)o1)C(N)=O | inconclusive: 6.51 µM [cytotoxic, partial curve, poor fit] | –

SMILES | Potency | activity change, negative = cytotoxic
OCc1cn(-c2ccccc2)nc1-c1ccc2c(c1)OCCO2 | inactive | –
O=C(O)c1ccccc1C(=O)OCC1CCC(=NO)CC1 (stereo not given) | inactive | –
CCCCOCCCNc1ncnc2c1[nH]c1ccccc12 | active: 2.59 µM | –
CCc1nnc(NS(=O)(=O)c2ccc(NC(=O)c3ccc(C#N)cc3)cc2)s1 | inactive | –
COC1=CCC2([N+](=O)[O-])CN(CC(=O)O)CC1([N+](=O)[O-])C2 (stereo not given) | inconclusive: 29.1 µM [cytotoxic, single point] | –
CCOC(=O)c1sc(=NC(=O)c2ccc(OC(C)C)cc2)n(C)c1C | inconclusive: 0.411 µM [cytotoxic, full curve] | –
CC1Sc2ccc(S(=O)(=O)N3CCC(C(=O)Nc4cccc(Cl)c4)CC3)cc2NC1=O (stereo not given) | active: 14.6 µM | –
COC(=O)c1c(C)oc2ccc(N(C(=O)Oc3ccccc3)S(=O)(=O)c3ccc(Cl)c([N+](=O)[O-])c3)cc12 | inconclusive: 16.4 µM [cytotoxic, single point] | –
Cc1ccc2cc(CN(CC3CCCO3)C(=S)Nc3ccccc3)c(=O)[nH]c2c1C (stereo not given) | active: 7.31 µM | –
O=C(NNC(=O)c1c(F)cccc1F)c1ccccc1-n1cccc1 | inactive | –
COc1cc(/C=N/NC(=O)c2cc(-c3cccc(OC(C)C)c3)nc3ccccc23)ccc1O | inconclusive: 18.4 µM [cytotoxic, single point] | –
CC1CCCCC1NC(=O)/C(C#N)=C/c1ccc(F)c(F)c1 (stereo not given) | inconclusive: 23.1 µM [rising, partial curve, poor fit] | –
Cc1ccc(S(=O)(=O)NCC(=O)OCC(=O)N(CCC#N)c2ccccc2)cc1 | inactive | –
CCOc1ccccc1N(CC(=O)Nc1cc(OC)ccc1OC)S(=O)(=O)c1ccccc1 | – | inconclusive: -35.9% [cytotoxic]
COc1ncccc1C(=O)NC1CCCc2c1cnn2-c1cc(C)cc(C)c1 (stereo not given) | inconclusive: 29.1 µM [cytotoxic, single point] | –
Cc1ccc(S(=O)(=O)N2CCC(C(=O)NNC(=O)c3ccccc3O)CC2)cc1 | inconclusive: 20.6 µM [cytotoxic, single point] | –
C/C(=N/NC(=O)c1cc(-c2cccc([N+](=O)[O-])c2)n[nH]1)c1cccc(O)c1 | inconclusive: 8.2 µM [rising, partial curve] | –
O=C(CNC(=O)c1ccccc1F)NCc1ccccn1 | inactive | –
Cc1cccnc1Nc1nc(-c2ccccn2)cs1 | active: 1.46 µM | –
CCCCn1c(N)c(N(C(=O)CSc2nnnn2-c2ccccc2)C2CCCC2)c(=O)[nH]c1=O | inconclusive: 0.184 µM [rising, full curve] | –
CCOC(=O)c1csc(-c2ccc([N+](=O)[O-])cc2)n1 | inconclusive: 29.1 µM [rising, single point] | –
CCOC(=O)N1CCC(NC(=O)c2ccc3c(c2)N(Cc2ccc(F)cc2)C(=O)c2ccccc2S3=O)CC1 (stereo not given) | inconclusive: 18.4 µM [cytotoxic, partial curve, poor fit] | –
